## Results of single-concentration screens

Amino acid sequences for entries named in this document (tags omitted).
UniProt P9WFT3, whole entry: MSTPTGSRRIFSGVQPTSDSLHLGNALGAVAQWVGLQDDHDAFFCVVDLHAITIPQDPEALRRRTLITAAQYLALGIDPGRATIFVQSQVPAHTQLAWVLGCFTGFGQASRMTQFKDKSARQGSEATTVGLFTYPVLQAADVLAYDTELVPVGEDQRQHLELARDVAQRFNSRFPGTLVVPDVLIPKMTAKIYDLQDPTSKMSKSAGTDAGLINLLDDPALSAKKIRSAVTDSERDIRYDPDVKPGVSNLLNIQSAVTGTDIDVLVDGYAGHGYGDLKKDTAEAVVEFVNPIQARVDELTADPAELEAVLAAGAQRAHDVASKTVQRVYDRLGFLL

A: 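Tryptophan-tRNA ligase, Mycobacterium tuberculosis (UniProt P9WFT3). Enzyme assay of tryptophanyl-tRNA synthetase; the read-out is not stated. Compounds at 10 µM. Higher most likely means stronger inhibition; the record gives no direction and few retests gave an IC50. Of about 65,000 compounds tested this way, about 64 (0.098%) reached 50% or more in at least one test.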
B: 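Cell assay of Leishmania donovani living inside macrophages; the read-out is not stated. Compounds at 30 µM. Direction is inferred from retests: higher values go with stronger inhibition. Of about 69,000 compounds tested this way, about 1,000 (1.5%) reached 50% or more in at least one test.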

The filed quantity is “Percent Effect” (%).
The controls that fix the scale are not given in the record; negative values are as filed.
The compounds are a random part of those screened.
Two or more numbers in one place are separate tests of the same structure; such repeats can differ widely.
A dash means the value is not listed here; it may have been measured.

Result for CCn1cnnc1CN(C)C(=O)C1CCC(=O)N(CC2CCCCC2)C1 (centres undefined) was A: -2.991%; B: 19.7%.
Result for COCCN1C[C@H]2[C@@H](C1)N(C(=O)COc1ccccc1)CC[C@H]2OC was A: 2.397%.
Result for Cn1ccc(C(=O)N(CC(F)(F)F)c2cccc(Cl)c2)cc1=O was A: 6.067%; B: -19.43%.
Result for CO[C@@H]1CCN(c2ncccn2)[C@H]1Cc1ccccc1 was A: 2.881%; B: 4.422%.
Result for CCOCC(O)CN1CCN(C(=O)c2cc(C)ccc2F)CC1 (centres undefined) was A: -0.2901%; B: -8.817%.
Result for CCOC(=O)CN1CCC2(CC1)CC(=O)c1ccc3ccccc3c1O2 was B: 52.56%.
Result for O=C(NCC1CCC2(CCNCC2)O1)C1CC1 (centres undefined) was A: 6.71%.
Result for [H][C@]12CC[C@]([H])(CN(Cc3ccccn3)C1)N(C(=O)c1cc(C(C)C)on1)C2 was B: 0.9923%.
Result for CC(C)N1CCC(Cc2cc(-c3cc(F)ccc3C(=O)O)ncn2)C1 (centres undefined) was B: -0.6038% and 0.6408%.
Result for CC(C)c1n[nH]c(C2CN(CCc3cccs3)CCO2)n1 (centres undefined) was A: 0.6246%; B: 6.444%.
Result for CC(C)(C)n1cc(CNc2ccc(CNS(C)(=O)=O)cc2)cn1 was A: -1.468%; B: -5.198%.
Result for CCC(C)(CCO)NC(=O)c1ccon1 (centres undefined) was A: 14.34%; B: -36.26%.
Result for CCN1CCC2(CC1)CC(NCc1cccc(C)n1)c1ccccc1O2.O=C(O)C(F)(F)F.O=C(O)C(F)(F)F.O=C(O)C(F)(F)F (centres undefined) was B: 4.141%.
Result for O=C(NCC(F)(F)F)C1CCCN(Cc2ccno2)C1 (centres undefined) was A: 6.961%; B: -33.15%.
Result for COc1ncccc1-c1ncccc1NC(=O)C(C)C was A: 5.153%; B: 24.13%.
Result for CCS(=O)(=O)N1CCOC2(CCCN(c3ccc(C)nn3)C2)C1.O=C(O)C(F)(F)F (centres undefined) was B: 11.03%.
Result for O=C(O)C(F)(F)F.O=C(c1cscn1)N1CCC2(CCN(Cc3cccs3)CC2)C1 was B: 49.77%.
Result for O=S(=O)(Cc1cccc(F)c1)Nc1cc(Cl)ccn1 was A: -1.214%; B: -33.33%.
Result for CCn1cc(-c2n[nH]c(=O)n2-c2ccc(OC)c(OC)c2)c(C)n1 was A: 1.083%; B: 18.08%.
Result for COc1cccc2c(=O)n(Cc3nc(C)cc(O)n3)cnc12 was A: -5.494%; B: -13.87%.
Result for Cc1ccc(N2CCN(C(=O)[C@@H]3CCC(=O)N3)CC2=O)cc1 was A: 0.144%; B: 6.333%.
Result for COC(=O)c1ccc(N2CCN(C(=O)c3ccn(C)c(=O)c3)CC2)cc1 was A: 2.391%; B: 8.82%.
Result for CC(C)(C)c1nc(CN2CCC(c3ccnn3CCO)CC2)no1 was A: 23.62%; B: 1.431%.
Result for CCC(C)NC(=O)Cn1ccc2sc(C)cc2c1=O (centres undefined) was A: -4.549%; B: -23.95%.
Result for COCC(=O)N(Cc1ccc2[nH]ccc2c1)C1CC1 was A: 5.966%; B: 38.66%.
Result for O=C(NCC1Cn2nnc(-c3cccc(F)c3)c2CO1)c1ccc[nH]1 (centres undefined) was A: -4.359%; B: 20.89%.
Result for Cc1cccc(NC2CCN(C(=O)Nc3cc(F)ccc3F)CC2)n1 was A: -2.531%; B: 18.43%.
Result for Fc1cccc(CN2C[C@@H]3CN(Cc4ccccn4)C[C@@H]3C2)c1 was A: -3.924%.
Result for CSc1nccc(NCC2CNCCO2)n1 (centres undefined) was A: -5.491%; B: 28.55%.
Result for Cc1cnc2n(c1=O)CC(C(=O)NCc1ccccc1Cl)CS2 (centres undefined) was A: -2.81%; B: -2.089% and -20.44%.
Result for CCC(NC(=O)CNCC(F)(F)F)c1cc(F)ccc1F (centres undefined) was A: 1.135%; B: 17.23%.
Result for [H][C@]12CN(Cc3cccc(OC)c3)CCN1C(=O)N(CCOC)C2 was B: 25.51%.
Result for Cc1noc(C)c1CN(C)C(=O)C1CCCc2ccccc21 (centres undefined) was A: 1.508%; B: -1.626%.

3 of the entries, repeated:

| Compound | A | B |
|---|---|---|
| `O=C(NCC1CCC2(CCNCC2)O1)C1CC1` (centres undefined) | 6.71 | - |
| `O=C(NCC1Cn2nnc(-c3cccc(F)c3)c2CO1)c1ccc[nH]1` (centres undefined) | -4.359 | 20.89 |
| `CCOC(=O)CN1CCC2(CC1)CC(=O)c1ccc3ccccc3c1O2` | - | 52.56 |

The values are deposited in ChEMBL (CHEMBL3988442, “University of Dundee, Small-Polar-MMV Screening Library” (2021)).